Measured values from PubChem BioAssay AID638 (SRMLSC, 2007).
In all, about 1,300 compounds went through this assay and about 65 (5%) were called active.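 The calls were made as follows: active = growth inhibition reaching a set limit at one or more tested doses; inactive = the rest.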 This is one part of the list. Potency and affinity values are given separately.

Assay: wild-type E. coli BW25113 antibacterial activity – OD615, dose response (AID 638)
Conditions: at 100 µM (top of the series) unless noted
Summary of the method: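 assay system = wild-type Escherichia coli strain BW25113 growth | medium = Kanamycin-supplemented LB broth | measured by = optical density (absorbance) at 615 nm | timing = bacterial exposure to compound 20 h at 37 °C | doses = compound concentration series | measure = IC50 from 4-parameter logistic, bounds fixed 0–100% | controls = chloramphenicol 30 µM control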

Growth inhibition, inactive:
C=CCn1c(NC(C)c2cc(Cl)ccc2O)nc2ccccc21 (stereo not drawn) 13.7%
O=C(N1CCN(c2ccccc2F)CC1)C12CC3CC(CC(C3)C1)C2 1.32%
NC1=NC(c2cn(-c3ccccc3)nc2-c2cccs2)n2c(nc3ccccc32)N1 (stereo not drawn) 14.5%
COc1ccccc1Cc1nc(-c2ccc(Br)o2)no1 10.7%
Cc1cccc(S(=O)(=O)Nc2nc3ccccc3nc2NCc2ccco2)c1 4.61%
O=C(c1cc2ccccc2o1)N1CCN(c2ccccc2Cl)CC1 -4.38%
Cc1cccc(Cn2c(=O)n(Cc3ccco3)c(=O)c3ccccc32)c1 -5.41%
Brc1cccc(C2CC(c3ccccc3)n3nnnc3N2)c1 (stereo not drawn) -4.92%
Cc1nc2nc(COc3ccccc3)[nH]n2c(=O)c1Cc1ccccc1 11.3%
Cc1noc(C)c1COC(=O)c1cc(C)n(-c2ccccc2)c1C 3.3%
Fc1ccc(Br)cc1C1C=C(c2ccc(Br)s2)Nc2ncnn21 (stereo not drawn) -9.67%
COc1ccc(S(=O)(=O)Nc2ccc(S(=O)(=O)N3CCCCC3)cc2)cc1 -5.18%
Cc1onc(-c2ccccc2)c1C(=O)Nc1nnc(COc2ccc(Cl)cc2)s1 -9.06%
Cc1cc(C)cc(Nc2cc(=O)n(C3CCCCC3)c(=O)[nH]2)c1 2.85%
CCOC(=O)c1ccccc1NC(=O)c1c(F)c(F)c(F)c(F)c1F -1.02%
CS(=O)(=O)N1CCc2cc(-c3csc(NC(=O)Cc4cccs4)n3)ccc21 -0.66%
O=C(CCn1c(=O)oc2ccccc21)N1CCN(C(c2ccccc2)c2ccccc2)CC1 0.1%
COc1ccc(OCC(O)Cn2c(=N)n(Cc3ccccc3)c3ccccc32)cc1 (stereo not drawn) 8.38%
Cc1ccc(C)c(S(=O)(=O)C(C#N)c2nc3ccccc3nc2N2CCOCC2)c1 (stereo not drawn) 4.2%
c1ccc(CN2CCN(c3nc(-c4ccccc4)nc(-n4ccnc4)n3)CC2)cc1 -6.5%
Cc1cc(C(=O)CSc2nc3ccccc3o2)c(C)n1C1CC1 4.13%
CCOc1ccc(C(=O)C2CCN(CC(=O)Nc3ccccc3N3CCOCC3)CC2)cc1 8.78%
COc1ccc(-n2cnc3cc(NCc4cccs4)ccc32)cc1 7.38%
Clc1ccc(OCCn2ccnc2)c2ccccc12 12.7% [at 50 µM]
O=C(Nc1nnc(-c2ccccc2Cl)o1)c1ccc(S(=O)(=O)N2CCCCCC2)cc1 -6.86%
CN(C)S(=O)(=O)N(Cc1ccc(Br)cc1)c1ccccc1 4.47%
c1ccc(Cn2nnnc2C(c2cccs2)N2CCCCCC2)cc1 (stereo not drawn) 12.9%
Cc1n[nH]c(C)c1S(=O)(=O)N(CC(=O)Nc1ccc2c(c1)OCCO2)c1ccc(C(C)C)cc1 -7.64%
c1ccc(CC2CCN(Cc3nc(-c4ccccc4)no3)CC2)cc1 1.02%
Cc1ccc(S(=O)(=O)N(Cc2ccccc2)Cc2ccco2)cc1 -4.74%
O=C(COc1ccccc1Br)c1ccc(O)cc1O 13.1%
N#Cc1cn(Cc2cccc(Cl)c2)c2ccccc12 12.4%
CS(=O)(=O)N(Cc1nc2sc3c(c2c(=O)[nH]1)CCCC3)C1CCCCC1 17.3%

Ordered by SMILES length (low to high): 3 of the compounds above.
Growth inhibition, inactive:
c1ccc(Cn2nnnc2C(c2cccs2)N2CCCCCC2)cc1 (stereo not drawn) 12.9%
c1ccc(CC2CCN(Cc3nc(-c4ccccc4)no3)CC2)cc1 1.02%
COc1ccc(S(=O)(=O)Nc2ccc(S(=O)(=O)N3CCCCC3)cc2)cc1 -5.18%
